# Measured values reported in the supplement of paper PMC8728848.
# The other results are listed elsewhere or left out.
# Assays:
# Assay in all cases: glycan array binding signal (z-score within array); higher = stronger binding
# Conditions in all cases: glycan notation: IUPAC condensed, linker removed
# [1] = target: Neu5Ac(a2-3)Gal(b1-3)GlcNAc6S
# Method in brief: (§1)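 The binding signal is a Z-score computed within each array and averaged over linkers. Arrays of the same protein sequence at different concentrations or buffers were also averaged together. Data originate from 3228 arrays in the Consortium for Functional Glycomics database, kept only where the protein sequence was available.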
# [2] = target: Neu5Ac(a2-3)Gal(b1-3)[Fuc(a1-4)]GlcNAc
# Method in brief: as §1
# [3] = target: Neu5Ac(a2-3)Gal(b1-3)[Fuc(a1-4)]GlcNAc(b1-3)Gal(b1-3)[Fuc(a1-4)]GlcNAc
# Method in brief: as §1
# [4] = target: Neu5Ac(a2-3)Gal(b1-3)[Fuc(a1-4)]GlcNAc(b1-3)Gal(b1-4)[Fuc(a1-3)]GlcNAc
# Method in brief: as §1
# [5] = target: Neu5Ac(a2-3)Gal(b1-3)[GlcNAc(b1-6)]GalNAc
# Method in brief: as §1
# [6] = target: Neu5Ac(a2-3)Gal(b1-3)[Neu5Ac(a2-6)]GalNAc
# Method in brief: as §1
# [7] = target: Neu5Ac(a2-3)Gal(b1-3)[Neu5Ac(a2-6)]GlcNAc(b1-3)[Fuc(a1-3)[Gal(b1-4)]GlcNAc(b1-6)]Gal(b1-4)Glc
# Method in brief: as §1
# [8] = target: Neu5Ac(a2-3)Gal(b1-3)]Neu5Ac(a2-3)Gal(b1-4)]GlcNAc
# Method in brief: as §1
# Neu5Ac(a2-3)Gal(b1-4)Glc = target: Neu5Ac(a2-3)Gal(b1-4)Glc
# Method in brief: as §1
# [9] = target: Neu5Ac(a2-3)Gal(b1-4)GlcNAc
# Method in brief: as §1
# [10] = target: Neu5Ac(a2-3)Gal(b1-4)GlcNAc(b1-2)Man
# Method in brief: as §1
# [11] = target: Neu5Ac(a2-3)Gal(b1-4)GlcNAc(b1-2)Man(a1-3)[GlcNAc(b1-4)][Neu5Ac(a2-3)Gal(b1-4)GlcNAc(b1-2)Man(a1-6)]Man(b1-4)GlcNAc(b1-4)GlcNAc
# Method in brief: as §1
# [12] = target: Neu5Ac(a2-3)Gal(b1-4)GlcNAc(b1-2)Man(a1-3)[Neu5Ac(a2-3)Gal(b1-4)GlcNAc(b1-2)Man(a1-6)]Man(b1-4)GlcNAc(b1-4)GlcNAc
# Method in brief: as §1
# [13] = target: Neu5Ac(a2-3)Gal(b1-4)GlcNAc(b1-2)Man(a1-3)[Neu5Ac(a2-3)Gal(b1-4)GlcNAc(b1-2)Man(a1-6)]Man(b1-4)GlcNAc(b1-4)[Fuc(a1-6)]GlcNAc
# Method in brief: as §1
# [14] = target: Neu5Ac(a2-3)Gal(b1-4)GlcNAc(b1-2)Man(a1-3)[Neu5Ac(a2-6)Gal(b1-4)GlcNAc(b1-2)Man(a1-6)]Man(b1-4)GlcNAc(b1-4)GlcNAc
# Method in brief: as §1
# [15] = target: Neu5Ac(a2-3)Gal(b1-4)GlcNAc(b1-2)[Neu5Ac(a2-3)Gal(b1-4)GlcNAc(b1-4)]Man(a1-3)[GlcNAc(b1-4)][Neu5Ac(a2-3)Gal(b1-4)GlcNAc(b1-2)[Neu5Ac(a2-3)Gal(b1-4)GlcNAc(b1-6)]Man(a1-6)]Man(b1-4)GlcNAc(b1-4)GlcNAc
# Method in brief: as §1
# [16] = target: Neu5Ac(a2-3)Gal(b1-4)GlcNAc(b1-2)[Neu5Ac(a2-3)Gal(b1-4)GlcNAc(b1-4)]Man(a1-3)[GlcNAc(b1-4)][Neu5Ac(a2-3)Gal(b1-4)GlcNAc(b1-4)Man(a1-6)]Man(b1-4)GlcNAc(b1-4)GlcNAc
# Method in brief: as §1
# [17] = target: Neu5Ac(a2-3)Gal(b1-4)GlcNAc(b1-2)[Neu5Ac(a2-3)Gal(b1-4)GlcNAc(b1-6)]Man(a1-6)[Neu5Ac(a2-3)Gal(b1-4)GlcNAc(b1-2)Man(a1-3)][GlcNAc(b1-4)]Man(b1-4)GlcNAc(b1-4)GlcNAc
# Method in brief: as §1
# [18] = target: Neu5Ac(a2-3)Gal(b1-4)GlcNAc(b1-3)Gal
# Method in brief: as §1
# [19] = target: Neu5Ac(a2-3)Gal(b1-4)GlcNAc(b1-3)Gal(b1-3)GlcNAc
# Method in brief: as §1
# [20] = target: Neu5Ac(a2-3)Gal(b1-4)GlcNAc(b1-3)Gal(b1-4)GlcNAc
# Method in brief: as §1
# [21] = target: Neu5Ac(a2-3)Gal(b1-4)GlcNAc(b1-3)Gal(b1-4)GlcNAc(b1-2)Man(a1-3)[Neu5Ac(a2-3)Gal(b1-4)GlcNAc(b1-3)Gal(b1-4)GlcNAc(b1-2)Man(a1-6)]Man(b1-4)GlcNAc(b1-4)GlcNAc
# Method in brief: as §1
# [22] = target: Neu5Ac(a2-3)Gal(b1-4)GlcNAc(b1-3)Gal(b1-4)GlcNAc(b1-3)Gal(b1-4)GlcNAc
# Method in brief: as §1
# [23] = target: Neu5Ac(a2-3)Gal(b1-4)GlcNAc(b1-3)Gal(b1-4)GlcNAc(b1-3)Gal(b1-4)GlcNAc(b1-2)Man(a1-3)[Neu5Ac(a2-3)Gal(b1-4)GlcNAc(b1-3)Gal(b1-4)GlcNAc(b1-3)Gal(b1-4)GlcNAc(b1-2)Man(a1-6)]GalNAc
# Method in brief: as §1
# [24] = target: Neu5Ac(a2-3)Gal(b1-4)GlcNAc(b1-3)Gal(b1-4)GlcNAc(b1-3)GalNAc
# Method in brief: as §1
# [25] = target: Neu5Ac(a2-3)Gal(b1-4)GlcNAc(b1-3)Gal(b1-4)GlcNAc(b1-3)[Neu5Ac(a2-3)Gal(b1-4)GlcNAc(b1-3)Gal(b1-4)GlcNAc(b1-6)]GalNAc
# Method in brief: as §1
# [26] = target: Neu5Ac(a2-3)Gal(b1-4)GlcNAc(b1-3)Gal(b1-4)GlcNAc(b1-6)[Gal(b1-3)]GalNAc
# Method in brief: as §1
# [27] = target: Neu5Ac(a2-3)Gal(b1-4)GlcNAc(b1-3)Gal(b1-4)[Fuc(a1-3)]GlcNAc
# Method in brief: as §1
# [28] = target: Neu5Ac(a2-3)Gal(b1-4)GlcNAc(b1-3)GalNAc
# Method in brief: as §1
# [29] = target: Neu5Ac(a2-3)Gal(b1-4)GlcNAc(b1-3)[Neu5Ac(a2-3)Gal(b1-4)GlcNAc(b1-6)]GalNAc
# Method in brief: as §1
binder,measurement,setting,value
Aap brpt (Staphylococcus epidermidis) (protein) VDGDPITSTEEIPFDKKREFDPNLAPGTEKVVQKGEPGTKTITTPTTKNPLTGEKVGEGEPTEKITKQPVDEIVHYGGEEIKTGHKDEFDPNAPKGSQTTQPGKPGVKNPDTGEVVTPPVDDVTKYGPVDGDPITSTEEIPFDKKREFDPNLAPGTEKVVQKGEPGTKTITTPTTKNPLTGEKVGEGEPTEKITKQPVDEIVHYGGEEIKPGHKDEFDPNAPKGSQEDVPGKPGVKNPDTGEVVTPPVDDVTKYGPVDGDSITSTEEIPFDKKREFDPNLAPGTEKVVQKGEPGTKTITTPTTKNPLTGEKVGEGEPTEKITKQPVDEIVHYGGEQIPQGHKDEFDPNAPVDSKTEVPGKPGVKNPDTGEVVTPPVDDVTKYGPVDGDSITSTEEIPFDKKREFDPNLAPGTEKVVQKGEPGTKTITTPTTKNPLTGEKVGEGKSTEKVTKQPVDEIVEYGPTK,glycan array binding signal (z-score),[1],0.164
same,glycan array binding signal (z-score),[2],0.572
same,glycan array binding signal (z-score),[3],-0.494
same,glycan array binding signal (z-score),[4],0.49
same,glycan array binding signal (z-score),[5],-3.02
same,glycan array binding signal (z-score),[6],-0.794
same,glycan array binding signal (z-score),[7],-0.357
same,glycan array binding signal (z-score),[8],1.62
same,glycan array binding signal (z-score),Neu5Ac(a2-3)Gal(b1-4)Glc,0.604
same,glycan array binding signal (z-score),[9],0.265
same,glycan array binding signal (z-score),[10],1.85
same,glycan array binding signal (z-score),[11],1.41
same,glycan array binding signal (z-score),[12],-0.831
same,glycan array binding signal (z-score),[13],-0.101
same,glycan array binding signal (z-score),[14],-1.42
same,glycan array binding signal (z-score),[15],-0.621
same,glycan array binding signal (z-score),[16],-1.03
same,glycan array binding signal (z-score),[17],0.925
same,glycan array binding signal (z-score),[18],-1.61
same,glycan array binding signal (z-score),[19],0.188
same,glycan array binding signal (z-score),[20],-0.371
same,glycan array binding signal (z-score),[21],-0.134
same,glycan array binding signal (z-score),[22],-1.13
same,glycan array binding signal (z-score),[23],1.19
same,glycan array binding signal (z-score),[24],-0.228
same,glycan array binding signal (z-score),[25],0.565
same,glycan array binding signal (z-score),[26],-0.843
same,glycan array binding signal (z-score),[27],-0.333
same,glycan array binding signal (z-score),[28],-0.57
same,glycan array binding signal (z-score),[29],0.328

# 2 entries from above in another layout.
binder	measurement	setting	value
Aap brpt (Staphylococcus epidermidis) (protein) VDGDPITSTEEIPFDKKREFDPNLAPGTEKVVQKGEPGTKTITTPTTKNPLTGEKVGEGEPTEKITKQPVDEIVHYGGEEIKTGHKDEFDPNAPKGSQTTQPGKPGVKNPDTGEVVTPPVDDVTKYGPVDGDPITSTEEIPFDKKREFDPNLAPGTEKVVQKGEPGTKTITTPTTKNPLTGEKVGEGEPTEKITKQPVDEIVHYGGEEIKPGHKDEFDPNAPKGSQEDVPGKPGVKNPDTGEVVTPPVDDVTKYGPVDGDSITSTEEIPFDKKREFDPNLAPGTEKVVQKGEPGTKTITTPTTKNPLTGEKVGEGEPTEKITKQPVDEIVHYGGEQIPQGHKDEFDPNAPVDSKTEVPGKPGVKNPDTGEVVTPPVDDVTKYGPVDGDSITSTEEIPFDKKREFDPNLAPGTEKVVQKGEPGTKTITTPTTKNPLTGEKVGEGKSTEKVTKQPVDEIVEYGPTK	glycan array binding signal (z-score)	[27]	-0.333
same	glycan array binding signal (z-score)	[28]	-0.57
